Some of the results follow. These are raw signals, not scaled to a control.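 First-pass screen: polymyxin B was added at a level that permeabilizes the Salmonella outer membrane while sparing the inner membrane. DMSO wells, with and without polymyxin B, defined maximum growth. Because plates differed from one another, each plate's data were ranked separately and the compounds with the lowest OD600 were carried forward as hits.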
System: Salmonella enterica serovar Typhimurium SL1344
Experiment: bacterial growth OD600 after 18 h with compound and polymyxin B; higher = more bacterial growth (less inhibition)
Conditions: 50 µM, Mueller-Hinton broth

SMILES	bacterial growth OD600 (polymyxin B 1 µg/mL)	bacterial growth OD600 (polymyxin B 0.75 µg/mL)
CCOc1cccc(CN(C)CC2CCCN(CCc3ccc(OC)cc3)C2)c1 (stereo not drawn)	0.836	–
O=C(CCC(=O)N1CCOc2c(cc(-c3cccnc3)cc2OCCc2cccs2)C1)c1ccc(F)cc1	–	0.893
COc1ccccc1C(=O)Nc1ccnn1C1CCN(Cc2cnc(SC)nc2)CC1	0.906	–
COC(=O)[C@@H](NC(=O)CCC1(Cc2ccc(F)c(OC)c2)CCC(=O)N1)c1ccccc1 (stereo partly drawn)	–	0.828
CCN1CCCC1CNC(=O)C1CCN(C2CCN(Cc3ccccc3C)CC2)CC1 (stereo not drawn)	0.856	–
Cc1cccc(C(=O)Nc2nc3c(s2)C(=O)CC(C(=O)NCC2(N4CCOCC4)CCCC2)C3)c1 (stereo not drawn)	–	0.858
O=C(CCC1CCN(C(=O)Cc2cccc3ccccc23)CC1)NC1CC1	0.871	–
COc1ccc(C(CC(=O)NCc2ccon2)c2ccccc2)cc1 (stereo not drawn)	0.878	–
